Source: publication PMC5601122
These are yes or no findings as the source states them, for the method shown. Binding seen in cells or lysates may run through a third protein. Some binding calls cover weakened binding; strength is not graded here.

Amino acid sequences for entries named in this document (tags omitted).
UniProt Q13158: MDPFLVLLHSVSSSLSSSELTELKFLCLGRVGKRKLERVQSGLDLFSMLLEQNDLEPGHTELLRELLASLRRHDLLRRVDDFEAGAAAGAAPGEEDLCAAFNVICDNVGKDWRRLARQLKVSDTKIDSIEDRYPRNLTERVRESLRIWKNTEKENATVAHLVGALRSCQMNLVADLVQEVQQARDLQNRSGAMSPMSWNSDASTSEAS
UniProt Q13546: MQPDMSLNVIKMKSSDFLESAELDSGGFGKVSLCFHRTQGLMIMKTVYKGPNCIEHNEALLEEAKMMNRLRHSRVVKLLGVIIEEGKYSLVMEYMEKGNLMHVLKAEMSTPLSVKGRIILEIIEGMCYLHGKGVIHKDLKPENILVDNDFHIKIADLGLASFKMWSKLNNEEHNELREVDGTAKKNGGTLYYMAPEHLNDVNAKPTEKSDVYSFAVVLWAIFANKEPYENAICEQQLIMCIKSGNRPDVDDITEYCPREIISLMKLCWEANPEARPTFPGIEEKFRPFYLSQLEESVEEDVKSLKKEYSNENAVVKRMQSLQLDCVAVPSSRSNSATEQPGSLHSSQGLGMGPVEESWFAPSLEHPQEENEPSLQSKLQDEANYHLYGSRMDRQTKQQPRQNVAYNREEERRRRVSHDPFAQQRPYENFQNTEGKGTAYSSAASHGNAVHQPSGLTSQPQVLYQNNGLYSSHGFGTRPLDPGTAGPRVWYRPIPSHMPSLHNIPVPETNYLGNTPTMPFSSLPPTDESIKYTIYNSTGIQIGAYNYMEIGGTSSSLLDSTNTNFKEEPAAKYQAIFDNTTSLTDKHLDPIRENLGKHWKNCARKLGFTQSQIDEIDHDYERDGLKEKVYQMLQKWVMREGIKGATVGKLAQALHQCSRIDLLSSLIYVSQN
UniProt Q9Y572: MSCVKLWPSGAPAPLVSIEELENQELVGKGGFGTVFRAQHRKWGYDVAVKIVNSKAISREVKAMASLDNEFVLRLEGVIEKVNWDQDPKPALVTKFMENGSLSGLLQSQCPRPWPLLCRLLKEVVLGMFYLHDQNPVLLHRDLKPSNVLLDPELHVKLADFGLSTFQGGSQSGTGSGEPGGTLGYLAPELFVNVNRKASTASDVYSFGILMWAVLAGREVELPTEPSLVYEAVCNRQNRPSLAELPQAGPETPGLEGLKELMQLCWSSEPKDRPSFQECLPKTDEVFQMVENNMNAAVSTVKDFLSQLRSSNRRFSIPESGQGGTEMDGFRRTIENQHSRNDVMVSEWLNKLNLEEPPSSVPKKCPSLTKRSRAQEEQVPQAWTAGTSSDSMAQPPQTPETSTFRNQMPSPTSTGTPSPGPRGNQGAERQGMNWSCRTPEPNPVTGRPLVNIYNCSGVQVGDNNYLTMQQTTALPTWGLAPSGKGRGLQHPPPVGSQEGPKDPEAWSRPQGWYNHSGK

target: p62/SQSTM1 (human (endogenous in SCC029B)) (UniProt Q13501); assay: co-IP; lysates of SCC029B cells treated with 400 nM Obatoclax for 48 hours or vehicle control; EBC lysis buffer (50 mM Tris pH 7.4, 150 mM NaCl, 1 mM EDTA, 0.5% NP-40); precipitated with p62 antibody overnight at 4°C, protein G-sepharose, immunoblotting

binding, binds:
FADD (from UniProt Q13158 1-208), Receptor-interacting protein kinase RIP1K (from UniProt Q13546 1-671), Receptor-interacting protein kinase RIP3K (from UniProt Q9Y572 1-518)
